Data taken from US20150329863, “APTAMERS INHIBITING THE ENZYMATIC ACTIVITY OF TYROSINASE” (L V M H RECHERCHE, published 2015).
A weaker result is weaker than the reference pair of the same experiment. Tags and fusion partners may be left off the protein sequences shown.

Target: T1, tyrosinase (endogenous, normal human melanocytes) (Homo sapiens) (UniProt P14679)
T1 sequence (looked up, limits assumed): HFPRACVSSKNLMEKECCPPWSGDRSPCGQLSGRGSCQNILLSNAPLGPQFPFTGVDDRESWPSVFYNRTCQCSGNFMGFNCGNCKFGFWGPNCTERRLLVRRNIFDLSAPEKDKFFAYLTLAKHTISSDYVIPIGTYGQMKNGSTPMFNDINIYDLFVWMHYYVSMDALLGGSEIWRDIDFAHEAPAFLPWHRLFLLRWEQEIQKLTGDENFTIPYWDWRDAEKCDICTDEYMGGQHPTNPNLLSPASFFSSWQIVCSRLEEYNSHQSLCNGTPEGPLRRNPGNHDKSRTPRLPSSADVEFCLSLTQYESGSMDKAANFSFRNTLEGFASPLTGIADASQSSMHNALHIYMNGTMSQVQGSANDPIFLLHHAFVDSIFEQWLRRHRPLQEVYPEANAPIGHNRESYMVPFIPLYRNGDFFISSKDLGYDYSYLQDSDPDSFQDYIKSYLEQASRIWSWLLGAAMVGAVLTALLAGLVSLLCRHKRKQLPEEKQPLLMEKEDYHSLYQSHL
Assay: activity in cells
Details: protein in cells, single-stranded DNA

In the case of CGCAATGGGCG [T10.1D], the “functional effect of the aptamer” value (lowest inhibition, not significant at 4 and 20 nM, significant at 100 and 200 nM, variant of T10.1) is reported as “less active”.
For “GCCTCCTGTCGAACGCAATGGGCGCAGATTGGAAGGC [T10.1A]”, the “functional effect of the aptamer” value (inhibits, but less than T10.1, in particular at 4 and 20 nM, variant of T10.1) was “less active”.
For “GCCTGTTGTGAGCCTCCTGTCGAACGCAATGGGCGCAGATTGGAAGGCCTAGCATTGAGCGTTTATTCTTGTCTCCC [T10.1]”, the “functional effect of the aptamer” value (results similar to round 10 pool (greater than 75% effect), 4-200 nM, no dose dependence) was “active”.
